In patent publication US6344223B1, “Food fortified with iron” (Nestec S.A, priority 2000, dated 2002):

Columns and labels:
Assay type in all cases: physicochemical
[1] = Lipid oxidation induction time of fish oil by Metrohm Rancimat; conditions: 100 C.
[2] = Discoloration of iron fortified NESQUIK powder reconstituted with boiling milk (total color difference, Hunter); conditions: for NESQUIK powder (ΔE): 15.0 ppm final iron, reconstituted with boiling milk, 15 minutes at room temperature; for color change in fortified NESQUIK powder: 15 ppm iron
[3] = Discoloration of iron fortified MILO powder reconstituted with boiling water (total color difference, Hunter); conditions: for MILO powder (ΔE): 15.0 ppm final iron, reconstituted with boiling water, 15 minutes at room temperature; for color change in fortified MILO powder: 15 ppm iron

Row | Compound | induction time less than control [1] | induction time ([1]; 50 ppm) | NESQUIK powder (ΔE) [2] | color change in fortified NESQUIK powder [2] | MILO powder (ΔE) [3] | color change in fortified MILO powder [3]
1 | ferrous sulfate [FeSO4] | 50-60% | 2.5 h | 10.3 | significant color change | 10.5 | significant color change
2 | O=P([O-])([O-])[O-].[Fe+2].[NH4+] [FeHN4PO4, ferrous ammonium phosphate] |  |  | 1.5 | minor color changes | 1.1 | minor color changes
3 | ferric sulfate | about 60% |  |  |  |  | 
